Values from PubChem BioAssay AID1259308 (NCATS, 2017).
This is a random part of about 59,000 deposited reagents. About 1,510 of them (2.6%) count as active. 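Calls use total luciferase alone and ignore viability, so some active siRNAs may act by altering cell number.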 Entries without a mark were called inactive. Reagents against one gene are numbered here. Further read-outs or replicates are left out here.

- Aim: 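Candidate targets for better recombinant protein yield in mammalian cells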 (primary screen)
- Cell system: human HEK293 embryonic kidney cells stably expressing firefly luciferase (HEK-CMV-Luc2-Hygro)
- Knock-down reagent: single siRNA against human genes, 0.8 pmol siRNA per well
- Timing: 72 h
- Measured: 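Luciferase light (ONE-Glo) measured on one replicate plate set and viability (CellTiter-Glo) on the other, scaled to a negative control siRNA, with robust z-scores and luciferase per cell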
- Reading the numbers: total luciferase, z-score: higher = more reporter protein produced
- Hit rule: 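An siRNA counts as active if its total luciferase robust z-score exceeds 3; genes with two or more such siRNAs out of three were retested with fresh siRNAs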
- Meaning of the calls: active = raised luciferase; inactive = no rise

FAM219A #1
- total luciferase, z-score: -0.439

FAM219A #2
- total luciferase, z-score: -1.01

FAM219A #3
- total luciferase, z-score: -0.362

ZDBF2 #1
- total luciferase, z-score: 0.391

ZDBF2 #2
- total luciferase, z-score: 0.0434

ZDBF2 #3
- total luciferase, z-score: 0.715

ZFP14 #1
- total luciferase, z-score: -0.779

ZFP14 #2
- total luciferase, z-score: -0.663

ZFP14 #3
- total luciferase, z-score: 0.0896

MSI1 #1
- total luciferase, z-score: -0.419

MSI1 #2
- total luciferase, z-score: 2.49

MSI1 #3
- total luciferase, z-score: 2.13

Targets listed so far whose target name begins with M or m:
MSI1 #1
- total luciferase, z-score: -0.419

MSI1 #2
- total luciferase, z-score: 2.49

MSI1 #3
- total luciferase, z-score: 2.13

Additional entries follow.
QTRT2 #1
- total luciferase, z-score: 0.205

QTRT2 #2
- total luciferase, z-score: 0.432

QTRT2 #3
- total luciferase, z-score: 1.04

TMC8 #1
- total luciferase, z-score: 0.05

TMC8 #2
- total luciferase, z-score: 0.366

TMC8 #3
- total luciferase, z-score: -1.12

MC5R #1
- total luciferase, z-score: -0.344

MC5R #2
- total luciferase, z-score: -0.235

MC5R #3
- total luciferase, z-score: -0.0304
